Measurements taken from patent publication US20090298167A1.
Changes are numbered by the printed parent chain. No constants are given. Whether binding was seen depends on the method and setting. Some results given as binding are weak or reduced against the parent protein; the word gives no strength.

Sequences of proteins named here, by UniProt entry; tags and fusion partners are left off. A change or cut given only in a name is not applied to a line headed by its entry.
UniProt Q9JHX3: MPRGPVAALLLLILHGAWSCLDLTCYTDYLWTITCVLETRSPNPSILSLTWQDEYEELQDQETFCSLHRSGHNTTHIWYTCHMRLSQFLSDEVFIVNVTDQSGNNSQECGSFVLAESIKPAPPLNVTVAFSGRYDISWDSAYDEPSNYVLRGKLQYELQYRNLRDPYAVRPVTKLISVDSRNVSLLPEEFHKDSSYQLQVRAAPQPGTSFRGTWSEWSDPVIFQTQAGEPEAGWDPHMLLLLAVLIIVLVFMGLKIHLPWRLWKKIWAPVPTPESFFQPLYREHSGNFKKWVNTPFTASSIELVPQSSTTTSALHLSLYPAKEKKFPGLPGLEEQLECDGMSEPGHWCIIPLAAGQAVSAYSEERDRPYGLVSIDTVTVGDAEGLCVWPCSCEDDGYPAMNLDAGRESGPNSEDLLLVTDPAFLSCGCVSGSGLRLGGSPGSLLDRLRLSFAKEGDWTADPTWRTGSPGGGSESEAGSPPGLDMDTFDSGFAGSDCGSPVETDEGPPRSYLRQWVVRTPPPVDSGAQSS
UniProt Q9HBE5: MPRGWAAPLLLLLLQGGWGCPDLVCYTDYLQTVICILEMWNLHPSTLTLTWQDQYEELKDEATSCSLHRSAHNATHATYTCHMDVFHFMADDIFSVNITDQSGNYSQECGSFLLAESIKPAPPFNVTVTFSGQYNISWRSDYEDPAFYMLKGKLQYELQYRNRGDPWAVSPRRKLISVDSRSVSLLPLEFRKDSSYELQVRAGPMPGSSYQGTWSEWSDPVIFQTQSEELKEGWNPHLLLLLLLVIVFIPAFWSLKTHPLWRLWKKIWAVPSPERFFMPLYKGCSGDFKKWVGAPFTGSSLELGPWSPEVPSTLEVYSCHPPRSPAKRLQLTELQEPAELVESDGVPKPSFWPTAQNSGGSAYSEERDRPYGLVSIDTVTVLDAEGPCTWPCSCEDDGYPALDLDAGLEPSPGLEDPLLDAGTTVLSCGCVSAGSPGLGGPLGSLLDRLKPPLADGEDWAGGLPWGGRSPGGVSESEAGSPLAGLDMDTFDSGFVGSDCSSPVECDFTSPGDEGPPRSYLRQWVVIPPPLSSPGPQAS

B1: AbS (antibody, human IgG1, V domains shown)
VH: QVQLQESGPGLVKPSETLSLTCAVSGYSISSGYYWGWIRQPPGKGLEWIGSISHTGNTYYNPPLKSRVTISVDTSKNQFSLKLSSVTAADTAVYYCARGGGISRPEYWGQGTLVTVSS
VL: SSELTQDPAVSVALGQTVRITCQGDSLRTYYASWYQQKPGQAPVLVIYGKHKRPSGIPDRFSGSSSGNTASLTITGAQAEDEADYYCMSRSIWGNPHVLFGGGTQLTVL
B2: AbT (antibody, human IgG1, V domains shown)
VH: B1 VH
VL: B1 VL with M88V, S89A, I92N, W93K
B3: AbQ (antibody, human IgG1, V domains shown)
VH: B1 VH with G99F, G100M, I102F, S103G
VL: B1 VL with M88V, S89A, I92V, W93V
B4: AbO (antibody, human IgG1, V domains shown)
VH: B1 VH
VL: B1 VL with M88V, S89T, I92A, W93K
B5: AbR (antibody, human IgG1, V domains shown)
VH: B1 VH with G99F, G100M, I102F, S103G
VL: B1 VL with M88V, S89T, I92V, W93K
B6: AbP (antibody, human IgG1, V domains shown)
VH: B1 VH
VL: B1 VL with M88V, I92A, W93K
B7: AbU (antibody, human IgG1, V domains shown)
VH: B1 VH
VL: B1 VL with M88T, S89T, I92N, W93K
B8: parental 18A5 antibody (antibody, V domains shown)
VH: B1 VH with P14T, Q110K
VL: SSELTQDPPVSVALGQTVTLTCQGDSLRTYYASWYQQKSGQAPILLLYGKHKRPSGIPDRFSGSTSGDTASLTITGAQAEDEADYYCNSRDSSGNPHVLFGGGTQLTVL
B9: AbL (antibody, human IgG1, V domains shown)
VH: B1 VH with G99F, G100M, I102F, S103G
VL: B1 VL with M88V, S89T, S91N, I92R, W93Y
B10: AbK (antibody, human IgG1, V domains shown)
VH: B1 VH with G99F, G100M, I102F, S103G
VL: B1 VL with M88V, S91A, I92V, W93V
B11: AbJ (antibody, human IgG1, V domains shown)
VH: B1 VH with G99F, G100M, I102F, S103G
VL: B1 VL with M88N, S91D, I92S, W93S
B12: AbC (antibody, human IgG1, V domains shown)
VH: B1 VH
VL: B1 VL with M88S, I92R, W93H
B13: AbD (antibody, human IgG1, V domains shown)
VH: B1 VH
VL: B1 VL with M88V, S89T, S91N, I92R, W93Y
B14: AbE (antibody, human IgG1, V domains shown)
VH: B1 VH
VL: B1 VL with S89A, I92R, W93K
B15: AbF (antibody, human IgG1, V domains shown)
VH: B1 VH
VL: B1 VL with M88S, S89T, I92R, W93K
B16: AbG (antibody, human IgG1, V domains shown)
VH: B1 VH
VL: B1 VL with M88V, S89T, I92V, W93K
B17: AbH (antibody, human IgG1, V domains shown)
VH: B1 VH
VL: B1 VL with M88V, S89A, S91A, I92V, W93R
B18: AbA (antibody, human IgG1, V domains shown)
VH: B1 VH
VL: B1 VL with M88V, S89A, I92V, W93V
B19: AbI (antibody, human IgG1, V domains shown)
VH: B1 VH
VL: B1 VL with M88I, S89A, I92N, W93K
B20: AbB (antibody, human IgG1, V domains shown)
VH: B1 VH
VL: B1 VL with M88V, S91A, I92V, W93V

biological target: cynomolgus monkey IL-21R-His/FLAG (cynomolgus monkey) (UniProt G7Q0S8); assay: BIACORE: antibody captured on anti-human IgG, series of cynomolgus monkey IL-21R-His/FLAG concentrations injected

Binder	binding
B1	binds
B2	binds

biological target: murine IL-21R extracellular domain His-Flag fusion protein (murine) (UniProt Q9JHX3); assay: BIACORE: antibody captured on anti-human IgG, series of murine IL-21R-His/FLAG concentrations injected

Binder	binding
B1	binds
B3	binds
B2	binds
B4	binds
B5	binds
B6	binds
B7	binds
B8	binds

biological target: human IL-21R extracellular domain His-Flag fusion protein (human) (UniProt Q9HBE5); assay: BIACORE: antibody captured on anti-human IgG, series of human IL-21R-His/FLAG concentrations injected

Binder	binding
B1	binds
B3	binds
B2	binds
B4	binds
B5	binds
B6	binds
B7	binds
B8	binds

biological target: murine IL-21R extracellular domain His-Flag fusion protein (murine) (UniProt Q9JHX3); assay: BIACORE, IgG captured, 50 nM murine IL-21R-H/F in flow

Binder	binding
B1	binds
B3	binds
B2	binds
B4	binds
B5	binds
B6	binds
B7	binds
B8	binds
B9	binds
B10	binds
B11	binds
B12	binds
B13	binds
B14	binds
B15	binds
B16	binds
B17	binds
B18	binds
B19	binds
B20	binds

biological target: human IL-21R expressed on cells (human) (UniProt Q9HBE5); assay: cell ELISA on transfected CHO cells

Binder	binding
B1	binds
B3	binds
B2	binds
B4	binds
B5	binds
B6	binds
B7	binds
B9	binds
B10	binds
B11	binds
B12	binds
B13	binds
B14	binds
B15	binds
B16	binds
B17	binds
B18	binds
B19	binds
B20	binds

biological target: murine IL-21R extracellular domain His-Flag fusion protein (murine) (UniProt Q9JHX3); assay: BIACORE: antibody captured on anti-human IgG, 50 nM analyte injected

Binder	binding
B1	binds
B3	binds
B2	binds
B4	binds
B5	binds
B6	binds
B7	binds

biological target: human IL-21R extracellular domain His-Flag fusion protein (human) (UniProt Q9HBE5); assay: BIACORE, antibody immobilised on CM5 chip

Binder	binding
B1	binds
B2	binds

biological target: murine IL-21R extracellular domain His-Flag fusion protein (murine) (UniProt Q9JHX3); assay: BIACORE, antibody immobilised on CM5 chip, 100 nM murine IL-21R-H/F

Binder	binding
B1	binds
B2	binds
B8	binds

biological target: human IL-21R extracellular domain His-Flag fusion protein (human) (UniProt Q9HBE5); assay: BIACORE: AbT immobilised directly on the chip (as printed on the sheet), human IL-21R-H/F injected

Binder	binding
B2	binds

biological target: human IL-21R expressed on cells (human) (UniProt Q9HBE5); assay: cell ELISA: CHO cells transiently expressing the receptor, antibody in conditioned medium, HRP anti-human IgG, A450

Binder	binding
B1	binds
B3	binds
B2	binds
B4	binds
B5	binds
B6	binds
B7	binds
B8	binds
B9	binds
B10	binds
B11	binds
B12	binds
B13	binds
B14	binds
B15	binds
B16	binds
B17	binds
B18	binds
B19	binds
B20	binds

biological target: cynomolgus monkey IL-21R-His/FLAG (cynomolgus monkey) (UniProt G7Q0S8); assay: BIACORE, IgG captured on anti-human IgG, receptor-H/F in flow

Binder	binding
B1	binds
B2	binds

biological target: human IL-21R extracellular domain His-Flag fusion protein (human) (UniProt Q9HBE5); assay: as above

Binder	binding
B1	binds
B2	binds

biological target: murine IL-21R extracellular domain His-Flag fusion protein (murine) (UniProt Q9JHX3); assay: BIACORE: AbS immobilised directly on the chip, 100 nM murine IL-21R-H/F injected

Binder	binding
B1	binds

biological target: murine IL-21R-Fc (murine) (UniProt Q9JHX3); assay: ELISA: mIL-21R-Fc captured on anti-mouse IgG2a; AbS added together with 10 µg/ml mIL-21; AbS detected with anti-human Ig

Binder	binding
B1	binds
